Measured values reported in publication PMC4118983, “Structural Insights into Calcium-Bound S100P and the V Domain of the RAGE Complex” (PLoS ONE, 2014).
Results are given in words; binding and its absence hold for the method and conditions named.

By UniProt entry, the sequences of proteins in these tests, tags left out. Residues count along the entry.
UniProt Q15109, residues 24-121: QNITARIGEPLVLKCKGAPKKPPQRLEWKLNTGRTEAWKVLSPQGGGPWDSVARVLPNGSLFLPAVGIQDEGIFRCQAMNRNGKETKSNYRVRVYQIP

How the values were obtained:
[1] = target: Recombinant RAGE V domain (residues 24–121) (UniProt Q15109); experiment: SEC; RAGE V domain (His tag cleaved) on a Superdex 75 column (1.6×60 cm) equilibrated with 20 mM Tris-HCl pH 7.5, 100 mM KCl, 4 mM CaCl2; both purified
[2] = target: Recombinant RAGE V domain (residues 24–121) (UniProt Q15109); experiment: ITC; S100P (2.0 mM, syringe) titrated into RAGE V domain (0.06 mM, cell); MicroCal VP-ITC; 25°C; 20 mM Tris-HCl pH 7.0, 100 mM NaCl, 4 mM CaCl2; single-site model; similar approach for the S100P mutants; both purified

binding [1] | binding [2] | Molecule
no binding |  | Recombinant RAGE V domain (residues 24–121) (from UniProt Q15109 24-121) (domain or fragment)
 | no binding | S100P F44G/Y88G/F89G triple mutant (natural protein, UniProt P25815 1-95, looked up, S100P, residues 1-95, with F44G, Y88G and F89G; Section 2.2 prints 'F44G/Y89G/F89G'; every other place prints F44G/Y88G/F89G; Used with 4 mM CaCl2; also called S100P F44G/Y89G/F89G (as printed in the methods); source: E. coli BL21(DE3), pET-20b(+), purified (size exclusion chromatography, Superdex 75)) MTELETAMGMIIDVFSRYSGSEGSTQTLTKGELKVLMEKELPGGLQSGKDKDAVDKLLKDLDANGDAQVDFSEFIVFVAAITSACHKGGEKAGLK
